Experimental data as given in PubChem BioAssay AID2284388 (EPA ToxCast).
Inconclusive results, whose numbers are uncertain, are shown with a selection of clear calls. Potencies beside an inconclusive call are fits to weak or partial responses and may not hold up. Calls of active or inactive are those of the source. Rule for the calls: active = hit-call score of the fitted dose curve at least 0.9, where 1 is the maximum; inconclusive = response in the unintended direction; inactive = score below 0.9.

The chains behind the UniProt entries cited, without tags or fusion partners. Where a name states a change or a piece, a line headed by the entry shows the natural chain unless it says otherwise.
UniProt P28702: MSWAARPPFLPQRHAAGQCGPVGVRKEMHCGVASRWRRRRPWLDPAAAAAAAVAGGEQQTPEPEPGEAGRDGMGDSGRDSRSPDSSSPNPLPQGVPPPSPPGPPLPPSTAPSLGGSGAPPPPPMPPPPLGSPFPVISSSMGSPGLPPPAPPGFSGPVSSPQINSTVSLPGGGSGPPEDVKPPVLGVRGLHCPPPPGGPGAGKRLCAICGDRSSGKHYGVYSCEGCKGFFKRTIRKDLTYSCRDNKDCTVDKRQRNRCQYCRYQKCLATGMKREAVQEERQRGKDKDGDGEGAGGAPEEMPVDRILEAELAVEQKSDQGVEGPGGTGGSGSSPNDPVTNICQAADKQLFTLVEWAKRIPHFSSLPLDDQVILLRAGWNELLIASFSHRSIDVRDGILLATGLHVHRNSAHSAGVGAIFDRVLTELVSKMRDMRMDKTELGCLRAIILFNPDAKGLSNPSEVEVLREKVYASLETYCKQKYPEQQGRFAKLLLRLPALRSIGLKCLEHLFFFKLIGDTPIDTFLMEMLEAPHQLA

target: human Retinoid X Receptor beta (RXRb) Agonism, RXRB (gene 6257) (UniProt P28702); assay: ERF_TW_NR_COA_hRXRB: Eurofins (ERF) Nuclear Receptor (NR) Functional Coactivator Assay for human Retinoid X Receptor beta (RXRb) Agonism
Description: ERF_TW_NR_COA_hRXRB is a biochemical, single-readout assay that uses extracted gene-proteins in a cell-free assay. Measurements were taken 0.5 hours after chemical dosing in a 96-well plate. See RXRbeta Human Retinoid X NHR Functional Agonist Coactivator Assay, Panlabs.ERF_TW_NR_COA_hRXRB is an assay component calculated from the ERF_TW_NR_COA_hRXRB assay. It is designed to measure FRET using a type of binding reporter as detected by fluorescence intensity of fluorobexarotene with fluorimetry technology.Data from the assay component ERF_TW_NR_COA_hRXRB was analyzed at the assay endpoint, ERF_TW_NR_COA_hRXRB, in the positive analysis fitting direction relative to DMSO as the negative control and baseline of activity. Using a type of binding reporter, gain-of-signal activity can be used to understand changes in binding as they relate to gene RXRB. […]
Test compound and/or vehicle is incubated with the 2 nM retinoid X receptor beta (RXRbeta)-LBD and coactivator peptide for 30 minutes at RT. Determination of the amount of complex formed is read spectrofluorimetrically (excitation: 337 nm, emission: 520/490 nm). Test compound-induced increase fluorescence by 50 percent or more (>/=50%) relative to the 10 uM fluorobexarotene response indicates possible RXRbeta receptor agonist activity.

**Q.** `Cc1ccc2cc3c(ccc4ccccc43)c3c2c1CC3` was tested. Which outcome did it give?
**A.** inactive

**Q.** With `C[C@H]1C[C@@H]2[C@H]([C@@H](O)C[C@@]3(C)[C@H]2CC[C@]3(O)C(=O)CO)[C@@]2(C)C=CC(=O)C=C12` as the compound, how does the AC50 read?
**A.** inconclusive: 15 µM
